Measured values taken from publication doi:10.1101/2025.04.05.647266.

Protein sequences, listed by entry. Tags and fused reporters are not part of them. Lines headed by an entry give the natural chain unless they say otherwise; changes in a name come on top.
UniProt P08476: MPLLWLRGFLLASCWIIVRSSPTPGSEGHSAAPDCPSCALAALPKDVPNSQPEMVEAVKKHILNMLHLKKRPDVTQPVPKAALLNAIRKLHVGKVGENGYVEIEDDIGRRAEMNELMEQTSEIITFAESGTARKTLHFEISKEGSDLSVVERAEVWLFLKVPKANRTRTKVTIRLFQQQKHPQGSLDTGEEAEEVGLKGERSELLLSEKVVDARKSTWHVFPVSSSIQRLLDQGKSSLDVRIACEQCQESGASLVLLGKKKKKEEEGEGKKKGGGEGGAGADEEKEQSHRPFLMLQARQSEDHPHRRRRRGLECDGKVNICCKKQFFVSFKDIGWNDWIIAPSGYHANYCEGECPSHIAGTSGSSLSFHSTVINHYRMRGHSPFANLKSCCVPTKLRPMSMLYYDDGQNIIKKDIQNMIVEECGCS

Molecular target: Inhibin beta A (INHBA) (human (endogenous in NUGC-3)) (UniProt P08476)
Test: co-IP

- binding: binds
B1: ITGA6 (α6-integrin, CD49f) (protein, UniProt P23229 24-1130)
chain: FNLDTREDNVIRKYGDPGSLFGFSLAMHWQLQPEDKRLLLVGAPRAEALPLQRANRTGGLYSCDITARGPCTRIEFDNDADPTSESKEDQWMGVTVQSQGPGGKVVTCAHRYEKRQHVNTKQESRDIFGRCYVLSQNLRIEDDMDGGDWSFCDGRLRGHEKFGSCQQGVAATFTKDFHYIVFGAPGTYNWKGIVRVEQKNNTFFDMNIFEDGPYEVGGETEHDESLVPVPANSYLGLLFLTSVSYTDPDQFVYKTRPPREQPDTFPDVMMNSYLGFSLDSGKGIVSKDEITFVSGAPRANHSGAVVLLKRDMKSAHLLPEHIFDGEGLASSFGYDVAVVDLNKDGWQDIVIGAPQYFDRDGEVGGAVYVYMNQQGRWNNVKPIRLNGTKDSMFGIAVKNIGDINQDGYPDIAVGAPYDDLGKVFIYHGSANGINTKPTQVLKGISPYFGYSIAGNMDLDRNSYPDVAVGSLSDSVTIFRSRPVINIQKTITVTPNRIDLRQKTACGAPSGICLQVKSCFEYTANPAGYNPSISIVGTLEAEKERRKSGLSSRVQFRNQGSEPKYTQELTLKRQKQKVCMEETLWLQDNIRDKLRPIPITASVEIQEPSSRRRVNSLPEVLPILNSDEPKTAHIDVHFLKEGCGDDNVCNSNLKLEYKFCTREGNQDKFSYLPIQKGVPELVLKDQKDIALEITVTNSPSNPRNPTKDGDDAHEAKLIATFPDTLTYSAYRELRAFPEKQLSCVANQNGSQADCELGNPFKRNSNVTFYLVLSTTEVTFDTPDLDINLKLETTSNQDNLAPITAKAKVVIELLLSVSGVAKPSQVYFGGTVVGEQAMKSEDEVGSLIEYEFRVINLGKPLTNLGTATLNIQWPKEISNGKWLLYLVKVESKGLEKVTCEPQKEINSLNLTESHNSRKKREITEKQIDDNRKFSLFAERKYQTLNCSVNVNCVNIRCPLRGLDSKASLILRSRLWNSTFLEEYSKLNYLDILMRAFIDVTAAAENIRLPNAGTQVRVTVFPSKTVAQYSGVPWWIILVAILAGILMLALLVFILWKCGFFKRSRYDDSVPRYHAVRIRKEEREIKDEKYIDNLEKKQWITKWNENESYS

No constants are given. Whether binding was seen depends on the method and setting. Binding seen in cells or lysates may run through a third protein. Binding can be weak; no strength is given.
